Source: the supplement of paper PMC8047044
Some of the results follow. Single values are uncertain, as repeats are few or missing.

tested on: Neuro-2a; assay: neurite formation score, plate-normalized to DMSO control mean 5.04 (score (0-8 scale)); higher = more or longer neurites; conditions: 10 µM

Structure (SMILES) | neurite formation score
CCCCCCCCc1ccc(CCC(N)(CO)CO)cc1 [Fingolimod (FTY720)] | 1.43
Cc1cc(N2CCOCC2)cc2[nH]c(-c3c(NC[C@@H](O)c4cccc(Cl)c4)cc[nH]c3=O)nc12 | 0.543
CC(C)CCN1c2nc(Nc3cc(F)c(O)c(F)c3)ncc2N(C)C(=O)C1C (centres undefined) | 1.86
Cc1cn(-c2cc(NC(=O)c3ccc(C)c(Nc4nccc(-c5cccnc5)n4)c3)cc(C(F)(F)F)c2)cn1 [Nilotinib(AMN-107)] | 4.19
